Assay results as given in US20190031761A1.
These are yes or no findings as the source states them, for the method shown.

Columns and labels:
[1] = target: recombinant human EGFR/ErbB1 Fc chimera protein (R&D systems, 344-ER) (human) (UniProt P00533); test: SPR (Biacore T200), antibody captured with human Fab capture kit, antigen as analyte
[2] = target: recombinant human EGFR/ErbB1 Fc chimera protein (R&D systems, 344-ER) (human) (UniProt P00533); test: condition: 256 nM (same manner as for EGFRvIII; not printed on the sheet); SPR (Biacore T200), B4A3 captured as ligand, rhEGFR-Fc as sample, 25 C

- binding [1]: no binding
- binding [2]: no binding
B1: B4A3 antibody (human IgG1) (antibody, V domains shown)
VH: EVQLLESGGGLVQPGGSLRLSCAASGFTFSNYYMSWVRQAPGKGLEWVSGTSPNGGSKYYADSVKGRFTISRDNSKNTLYLQMNSLRAEDTAVYYCAKGRRKLRATRFDYWGQGTLVTVSS
VL: QSVLTQPPSASGTPGQRVTISCTGSSSNIGNNYVSWYQQHPGTAPKLLIYSDSNRPSGVPDRFSGSKSGTSASLAISGLRSEDEADYYCATWDASLSAYVFGGGTKLTVL
